Test results published in PubChem BioAssay AID624291 (National Center for Advancing Translational Sciences (NCATS), 2012).
Screen size: about 350,000 compounds; about 220 (0.063%) were called active. The shares of active, inactive and inconclusive entries below differ from those in the screen. The call rests on the fitted dose curve; in most records, active means well fitted activation curve with a large enough effect; inconclusive means small, poorly fitted or top-dose-only effect; inactive means no such curve, though single readings can be large or run the other way. Potencies beside an inconclusive call are fits to weak or partial responses and may not hold up.

Experiment: qHTS for Activators of Integrin-Mediated Alleviation for Muscular Dystrophy; further: nearly all actives have a fitted effect of over 60% in size;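 on activation: 100% = response of the positive control SU9516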
Conditions: alpha7betagal myoblasts, beta-gal FDG fluorescence, 48 h; activation: at 38.3 µM (top of the series)
Procedure, shortened: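 alpha7betagal+/- myoblasts (passage 13, 250/well) treated 48 h at 37C with compounds at 1:260 dilution of DMSO stock. Lysed, then beta-galactosidase activity read as FDG fluorescence (ex 480/em 540) after 30 min, with pre-read for autofluorescence.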
Potency means the concentration at half of the fitted maximal effect.

activation, inactive:
O=C(O)C1Nc2c(Cl)cc(Cl)c(Cl)c2C2C=CCC12 (configuration not stated) 17.2%
COc1ccccc1C(=O)Nc1nnc(-c2ccc3c(c2)CCCC3)o1 -3.46%
CC(=O)Nc1ccc(S(=O)(=O)Nc2nc3ccccc3nc2Nc2cccc(O)c2)cc1 5.92%
Cc1ccc(S(=O)(=O)N(C)C)cc1NC(=S)NC(C)CCCC(C)C (configuration not stated) -40.8%
O=C(NCCOc1ccccc1)c1cc(C(=O)NCCOc2ccccc2)cc([N+](=O)[O-])c1 -21%
Cc1ccccc1C(=O)N1CCC(C(=O)N(C)CCOc2ccccc2)CC1 -4.11%
Cc1noc(NS(=O)(=O)c2ccc(N/C=C/C(=O)c3ccncc3)cc2)c1C 22.7%
CCOC(=O)C1(C(F)(F)F)N=C(c2cccnc2)OC(N2CCOCC2)=N1 (configuration not stated) 1.03%
O=c1oc(-c2ccccc2)c(-c2ccccc2)c2ccccc12 9.71%
O=C(O)c1ccc(N/N=C/C2=Cc3ccccc3OC2)cc1 -3.24%
CCOC(=O)NC1=NCC(C)(C)S1 -6.63%
C[C@H](CCC(=O)O)[C@H]1CC[C@H]2[C@@H]3CC[C@@H]4C[C@H](O)CC[C@]4(C)[C@H]3C[C@H](O)[C@]12C 0.772%
CC(C)c1ccc(Nc2nnc(SCC(=O)NCC3CCCO3)s2)cc1 (configuration not stated) -0.0411%
Cc1ccc(-n2c(CNc3cccc(Cl)c3)n[nH]c2=S)cc1 14.2%
CCOC(=O)c1c(NC(=S)N2CCN(C)CC2)sc(C)c1-c1ccccc1 -37.5%
CCOn1c(=O)c(=O)n(OC)c2ccccc21 -26.4%
C1CCc2c(nc3nnnn3c2NCC2CC2)C1 12.1%

A draw from above in order of length of the SMILES, rising.
activation, inactive:
O=C(O)c1ccc(N/N=C/C2=Cc3ccccc3OC2)cc1 -3.24%
CCOC(=O)C1(C(F)(F)F)N=C(c2cccnc2)OC(N2CCOCC2)=N1 (configuration not stated) 1.03%
CC(=O)Nc1ccc(S(=O)(=O)Nc2nc3ccccc3nc2Nc2cccc(O)c2)cc1 5.92%
O=C(NCCOc1ccccc1)c1cc(C(=O)NCCOc2ccccc2)cc([N+](=O)[O-])c1 -21%

Following part:

activation, inconclusive:
Cc1ccc(CCNC(=O)C2CCN(S(=O)(=O)c3ccc4c(c3)oc(=O)n4C)CC2)cc1 7.54% [activator]
CCOc1cc(S(=O)(=O)n2c(C)nc3ccccc32)ccc1F 13.9% [activator]

Potency, inconclusive:
COC(CNC(=O)c1ccc(CS(=O)(=O)c2c(Cl)cccc2Cl)o1)OC 5.01 µM [activator, single point]
O=C(OCc1ccc(Br)cc1)c1cnc(Cl)c(Cl)c1 1.58 µM [activator, partial curve, poor fit]
Cc1cc(C)c(S(=O)(=O)N(CC(=O)O)C2CCCCC2)c(C)c1 12.6 µM [activator, single point]
CCN1C(=O)C2C(c3cccc(F)c3)NC(CC)(C(=O)OC)C2C1=O (configuration not stated) 28.2 µM [activator, single point]
CCC(=O)Oc1ccc2ccccc2c1CNC(=O)c1ccccc1 2.82 µM [activator, partial curve, poor fit]
O=C(COC(=O)CC1CC2CCC1C2)NC(=O)NC1CCCC1 (configuration not stated) 8.91 µM [activator, partial curve, poor fit]
CCN1CCN(C(=O)N2CCOCC2)CC1 28.2 µM [activator, single point]
Cc1ccc(C)c(CN2C(=O)NC3(CCCCCC3)C2=O)c1 20 µM [activator, single point]
COc1cccc(Cn2cccc(NC(=O)Nc3ccccc3C)c2=O)c1 3.16 µM [activator, single point]
COc1ccccc1NC(=O)c1ccc(NC(=O)CSc2ncn[nH]2)cc1 5.01 µM [activator, partial curve, poor fit]
COc1ccc(-c2cc3ncc(-c4ccccc4)c(N)n3n2)cc1 22.4 µM [activator, single point]
COc1ccc(/C=N/NC(=O)CCn2nc(C)cc2C)cc1O 8.91 µM [activator, single point]
C=CCSc1nn2c(=O)c3ccccc3nc2s1 5.01 µM [activator, single point]
COc1ccc(CC(=O)OCC(=O)c2ccc(OC)cc2)cc1 5.01 µM [activator, single point]
CC(C)n1c(CSCc2ccc(Cl)cc2Cl)n[nH]c1=S 11.2 µM [activator, single point]
O=C(Cc1ccccc1)Nc1ccccc1C(=O)N1CCCCCC1 28.2 µM [activator, single point]
O=C(CN(C(=O)c1csnn1)c1cccc(Cl)c1)NC1CCCCC1 28.2 µM [activator, single point]
c1ccc(-c2csc(Nc3cccnc3)n2)nc1 1 µM [activator, full curve, poor fit]
Cc1c(C(=O)Nc2ccccc2)sc2nc3n(c(=O)c12)CCCCC3 31.6 µM [activator, single point]
Cc1[nH]nc(-c2ccc(O)c(C)c2O)c1-c1cnn(-c2ccccc2)c1 2.51 µM [activator, single point]
O=C(c1cccs1)N(c1ccc(F)cc1)C1C=CS(=O)(=O)C1 (configuration not stated) 28.2 µM [activator, single point]
COc1ccc(C(=O)NCc2cc(C)nc3ccccc23)cc1 1.41 µM [activator, single point]
Cc1nc(Nc2cccc(C(C)O)c2)c2nnn(Cc3ccc(F)cc3)c2n1 (configuration not stated) 3.16 µM [activator, single point]
O=C(COc1ccc(F)cc1F)NNC(=O)Nc1cccc([N+](=O)[O-])c1 2.82 µM [activator, partial curve, poor fit]
COc1ccc(/C=N/n2c(-c3ccccc3)n[nH]c2=S)cc1 3.98 µM [activator, partial curve, poor fit]
O=C(Nc1cccnc1)c1cc(-c2ccc(Cl)c(Cl)c2)on1 28.2 µM [activator, single point]
NS(=O)(=O)c1ccc(CCNC(=O)C2CCN(S(=O)(=O)c3ccccc3)CC2)cc1 28.2 µM [activator, single point]

Potency, active:
COc1cc(C(C(=O)NC2CCCCC2)N(C(=O)c2snc(C(N)=O)c2N)c2ccc(C)cc2)ccc1O (configuration not stated) 7.94 µM
